# Source: PubChem BioAssay (Tox21)
# Protein sequences, listed by entry. Tags and fused reporters are not part of them. Lines headed by an entry give the natural chain unless they say otherwise; changes in a name come on top.
# UniProt P19793: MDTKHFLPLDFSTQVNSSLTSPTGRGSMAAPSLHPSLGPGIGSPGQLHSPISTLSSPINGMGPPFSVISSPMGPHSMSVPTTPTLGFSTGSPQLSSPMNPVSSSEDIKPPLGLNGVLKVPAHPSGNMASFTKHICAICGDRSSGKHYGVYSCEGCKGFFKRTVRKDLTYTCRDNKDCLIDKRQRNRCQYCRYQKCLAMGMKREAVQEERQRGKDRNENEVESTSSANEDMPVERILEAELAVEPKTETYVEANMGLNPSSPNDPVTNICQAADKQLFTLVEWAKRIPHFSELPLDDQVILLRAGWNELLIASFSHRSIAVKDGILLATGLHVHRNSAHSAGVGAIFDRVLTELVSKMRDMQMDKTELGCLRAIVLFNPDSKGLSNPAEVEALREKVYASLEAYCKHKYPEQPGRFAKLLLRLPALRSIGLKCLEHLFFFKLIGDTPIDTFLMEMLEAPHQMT
# Where “and” joins values, the source holds several entries; their conditions need not be identical. Identical values can stand only once. Inconclusive results, whose numbers are uncertain, are shown with a selection of clear calls. A potency beside an inconclusive call is a rough fit, not a confirmed value. Calls of active or inactive are those of the source. Unless noted, calls follow the shape of the dose curve; as a rule, active = well fitted curve in the direction sought with a large enough effect in the repeat runs; inconclusive = weak or mixed curves; inactive = no such curve, though single readings can be large; an effect the other way counts as inactive or inconclusive.
# Legend:
# [1] = target: Retinoic acid receptor RXR-alpha (Homo sapiens) (UniProt P19793); assay: qHTS assay to identify small molecule agonists of the RXR signaling pathway (AID 1159527; calls by dose curve; also: nearly all actives have a fitted effect of over 35% in size; as to activation: % is scaled to controls: 0 for no effect and ±100 for the full control effect); conditions: HEK293T RXRa-UAS-bla, beta-lactamase ratio, 16 h; activation: at 76.8 µM (top of the series) unless noted
# How it was run: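 GeneBLAzer RXR-alpha-UAS-bla HEK 293T cells in medium with 2% charcoal-stripped FBS, pre-incubated 5 hr at 37 C, then exposed to compounds 16 hr. Beta-lactamase reporter read by FRET substrate, 2 hr room temperature, 460/530 nm emission.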
# [2] = qHTS assay to identify small molecule agonists of the RXR signaling pathway - cell viability counter screen (AID 1159529); also: nearly all actives have a fitted effect of over 50% in size
# How it was run: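 RXR-alpha-UAS-bla HEK 293T cells in medium with 2% charcoal-stripped FBS were preincubated 5 hr, then exposed to compounds for 16 hr at 37 C. Viability was read as CellTiter-Glo luminescence after 30 min at room temperature.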
# [3] = qHTS assay to identify small molecule antagonists of the retinoid acid receptor (RAR) signaling pathway - cell viability counter screen (AID 1159551); also: nearly all actives have a fitted effect of over 35% in size
# How it was run: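 Seed C3RL4 cells; next day add compound, then retinol to 1 uM final; incubate 6 h at 37 C; add CellTiter-Glo; read luminescence after 30 min at RT.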
# [4] = qHTS assay to identify small molecule antagonists of the retinoic acid receptor (RAR) signaling pathway (AID 1159552; also: nearly all actives have a fitted effect of over 50% in size)
# How it was run: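 RARE-luc C3RL4 cells; cpds + 1 uM (final) retinol, 6 hr, 37 C/5% CO2; luciferase reagent, 30 min RT, luminescence readout. Inhibitors of retinol-driven signal scored.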
# [5] = qHTS assay to identify small molecule agonists of the retinoic acid receptor (RAR) signaling pathway (AID 1159553); conditions: C3RL4 RARE luciferase reporter, agonist, 6 h; activation: at 73.3 µM (top of the series) unless noted; as to activation: % is scaled to controls: 0 for no effect and ±100 for the full control effect
# How it was run: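 Activation of retinol signaling was monitored via a RARE luciferase reporter in C3RL4 cells. After 6 hr compound treatment at 37 C, detection reagent was added for 30 min at room temperature before luminescence reading.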
# [6] = qHTS assay to identify small molecule antagonists of the estrogen related receptor signaling pathway with the pleiotropic PPARgamma coactivator (PGC) cell viability counter screen (AID 1224822;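 also: viability read after 17.5 h compound exposure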)
# How it was run: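 Compounds in DMSO, with positive and negative controls, were applied to PGC/ERR cells (2,000/well) and left 17.5 h at 37 C before CellTiter-Fluor detection.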
# [7] = qHTS assay to identify small molecule antagonists of the estrogen related receptor (ERR) signaling pathway (AID 1224819; also: nearly all actives have a fitted effect of over 50% in size)
# How it was run: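 qHTS in ERR cells, 2,000/well, 1536 format. Cpd (DMSO) added after 6 h settle, 18 h 37 C. One-Glo luminescence, 30 min RT.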
# Potency is read from the fitted curve at half-maximal effect.
smiles,measurement,setting,value
CC(C)Nc1ccc(NC(C)C)c2c1C(=O)c1ccccc1C2=O,Potency,[1],"inconclusive: 2.28 µM [inhibitor, full curve]"
same,Potency,[2],"inconclusive: 4.54 µM [cytotoxic, full curve]"
same,Potency,[3],active: 25.3 µM
same,Potency,[4],"inconclusive: 7.13 µM [inhibitor, full curve]"
COC(=O)c1nc(Cl)c(Cl)nc1N,Potency,[1],"inconclusive: 1.2 µM [fluorescent, full curve, poor fit]"
same,Potency,[2],active: 13.4 µM
same,Potency,[3],"inconclusive: 18.8 µM [rising, partial curve]"
same,Potency,[4],active: 11.9 µM
same,Potency,[5],"inconclusive: 10.6 µM [inhibitor, full curve]"
CC(O)C#CC(C)O (configuration not stated),Potency,[1],"inconclusive: 54.4 µM [rising, single point]"
same,Potency,[2],active: 43.2 µM
same,Potency,[3],"inconclusive: 27 µM [rising, full curve]"
Cc1ccc2ccc3cccc4ccc1c2c34,activation,[1],inconclusive: -31.3%
same,Potency,[2],"inconclusive: 24.5 µM [cytotoxic, partial curve]"
OCCCCCCO,Potency,[1],inactive
same,Potency,[2],"inconclusive: 44.2 µM [cytotoxic, partial curve]"
CCCCCCCC/C=C\CCCCCCCC(=O)N(C)CC(=O)O,Potency,[1],"inconclusive: 19.5 µM [rising, partial curve, poor fit]"
same,Potency,[2],"inconclusive: 21.9 µM [cytotoxic, full curve]"
same,Potency,[3],inconclusive: 54.5 µM [cytotoxic]
same,Potency,[4],"inconclusive: 19.3 µM [inhibitor, partial curve, poor fit]"
same,activation,[5],inconclusive: -5.62% [phenotype inactive]
Cc1ccc(CCn2c3c(c4cc(Cl)ccc42)CN(C)CC3)cn1,Potency,[1],"inconclusive: 19 µM [rising, partial curve, poor fit]"
same,Potency,[2],active: 16.9 µM
same,Potency,[5],inactive
CCO[C@@H]1O[C@H](C(COCc2ccccc2)OCc2ccccc2)[C@H](OCc2ccccc2)[C@H]1O (some centres not stated),Potency,[1],"inconclusive: 23.9 µM [inhibitor, partial curve, poor fit]"
same,Potency,[2],"inconclusive: 16.9 µM [cytotoxic, partial curve]"
same,Potency,[4],"inconclusive: 29.8 µM [inhibitor, partial curve, poor fit]"
same,Potency,[5],"inconclusive: 33.5 µM [inhibitor, single point]"
CCCCCCc1ccc(N)cc1,activation,[1],inconclusive: -29.7%
same,Potency,[2],"inconclusive: 21.9 µM [cytotoxic, partial curve]"
same,activation,[5],inconclusive: 8.81% [phenotype inactive]
COC(=O)C1=C(C)NC(C)=C(C(=O)O[C@@H]2CCCN(Cc3ccccc3)C2)[C@@H]1c1cccc([N+](=O)[O-])c1,Potency,[1],inconclusive: 15.1 µM [inhibitor]
same,Potency,[2],inactive
same,Potency,[4],"inconclusive: 33.5 µM [inhibitor, single point]"
same,Potency,[5],"inconclusive: 29.8 µM [inhibitor, partial curve, poor fit]"
CCOC(=O)c1nc(C(Cl)(Cl)Cl)n(-c2ccc(Cl)cc2Cl)n1,Potency,[1],"inconclusive: 61.6 µM [falling, single point]"
same,Potency,[2],active: 49 µM
same,Potency,[4],"inconclusive: 68.6 µM [inhibitor, single point]"
same,Potency,[5],"inconclusive: 77 µM [inhibitor, single point]"
CCOC(=O)NCCOc1ccc(Oc2ccccc2)cc1,activation,[1],inconclusive: -17.9%
same,Potency,[2],"inconclusive: 17.4 µM [rising, partial curve, poor fit]"
same,Potency,[5],"inconclusive: 34.4 µM [activator, partial curve, poor fit]"
CNCc1cc(F)ccc1Oc1ccc(Cl)c(Cl)c1,Potency,[1],inconclusive: 15.5 µM [inhibitor]
same,Potency,[2],"inconclusive: 24.5 µM [cytotoxic, partial curve]"
same,Potency,[4],"inconclusive: 38.6 µM [inhibitor, partial curve]"
same,activation,[5],inconclusive: -8.41% [phenotype inactive]
Nc1cc(C(F)(F)F)ccc1S,Potency,[1],"inconclusive: 9.52 µM [rising, partial curve]"
same,Potency,[2],active: 8.49 µM
same,Potency,[5],"inconclusive: 33.5 µM [inhibitor, single point]"
C=CC(C)(CCC=C(C)C)OC(=O)/C=C/c1ccccc1 (configuration not stated),Potency,[1],"inconclusive: 54.9 µM [rising, partial curve, poor fit]"
same,Potency,[2],"inconclusive: 54.9 µM [cytotoxic, single point]"
same,Potency,[5],"inconclusive: 48.6 µM [inhibitor, partial curve]"
C[C@]12CCC(=O)C=C1CC[C@@H]1[C@@H]2C(=O)C[C@@]2(C)[C@H]1CC[C@]2(O)C(=O)CO,activation,[1],inconclusive: 2.16%
same,Potency,[2],inactive
same,Potency,[4],"inconclusive: 30.6 µM [inhibitor, partial curve, poor fit]"
same,Potency,[5],"inconclusive: 13.7 µM [inhibitor, full curve] and inactive"
same,Potency,[6],inactive
Clc1ccccc1-c1nc(-c2ccncc2)no1,Potency,[1],"inconclusive: 1.07 µM [inhibitor, full curve]"
same,Potency,[2],inactive
same,Potency,[5],active: 2.11 µM
O=C1C=CC(=O)N1,Potency,[1],inconclusive: 22.5 µM [cytotoxic]
same,Potency,[2],active: 22.5 µM
same,Potency,[5],"inconclusive: 12.5 µM [inhibitor, full curve]"
CCCCCCOc1ccc(O)cc1,activation,[1],inconclusive: -21.6%
same,Potency,[2],inconclusive: 43.6 µM [cytotoxic]
same,Potency,[5],active: 0.611 µM
CCC(C)n1ncn(-c2ccc(N3CCN(c4ccc(OC[C@H]5CO[C@](Cn6cncn6)(c6ccc(Cl)cc6Cl)O5)cc4)CC3)cc2)c1=O (some centres not stated),Potency,[1],"inconclusive: 2.39 µM [inhibitor, partial curve]"
same,Potency,[2],"inconclusive: 4.77 µM [cytotoxic, partial curve, poor fit]"
same,Potency,[4],"inconclusive: 1.19 µM [inhibitor, partial curve, poor fit]"
CC(C)(O)c1coc(S(=O)(=O)NC(=O)Nc2c3c(cc4c2CCC4)CCC3)c1,Potency,[1],"inconclusive: 4.9 µM [activator, full curve]"
same,Potency,[2],"inconclusive: 30.9 µM [rising, partial curve, poor fit]"
same,Potency,[5],"inconclusive: 77 µM [activator, partial curve, poor fit]"
Clc1ccc2cc3ccccc3cc2c1,Potency,[1],active: 54.9 µM
same,Potency,[2],inactive
same,Potency,[5],"inconclusive: 30.6 µM [activator, partial curve, poor fit]"
CCC(CC)C(=O)O,Potency,[1],"inconclusive: 54.9 µM [activator, single point]"
same,Potency,[2],inactive
same,activation,[5],inconclusive: 1.19% [phenotype inactive]
O=C1Nc2ccccc2C1(c1ccc(O)cc1)c1ccc(O)cc1,Potency,[1],"inconclusive: 38.9 µM [inhibitor, partial curve] and inactive"
same,Potency,[2],inconclusive: 30.9 µM
same,Potency,[4],active: 61.1 µM
same,Potency,[5],"inconclusive: 68.6 µM [inhibitor, partial curve, poor fit]"
CCN(CCCc1ccccc1)CCCc1ccccc1,Potency,[1],"inconclusive: 4.77 µM [rising, full curve, poor fit]"
same,Potency,[2],"inconclusive: 6.01 µM [cytotoxic, partial curve, poor fit]"
same,Potency,[5],inactive
NC=O,activation,[1],inconclusive: 6.94%
same,Potency,[2],inactive
same,Potency,[5],inactive
CCCCOc1ccc(CC(=O)NO)cc1,Potency,[1],"inconclusive: 0.601 µM [inhibitor, full curve]"
same,Potency,[2],"inconclusive: 1.9 µM [cytotoxic, full curve]"
same,Potency,[5],active: 29.8 µM
CNCCCN1c2ccccc2CCc2ccccc21,Potency,[1],"inconclusive: 19 µM [inhibitor, partial curve, poor fit]"
same,Potency,[2],"inconclusive: 13.4 µM [cytotoxic, partial curve]"
same,Potency,[4],"inconclusive: 33.5 µM [inhibitor, single point]"
same,Potency,[5],"inconclusive: 23.7 µM [inhibitor, partial curve, poor fit]"
same,Potency,[6],inconclusive: 26.6 µM [cytotoxic]
CCCCCCCC#N,Potency,[1],"inconclusive: 61.7 µM [rising, single point]"
same,Potency,[2],"inconclusive: 54.9 µM [cytotoxic, single point]"
same,Potency,[5],"inconclusive: 43.3 µM [inhibitor, partial curve]"
CC(Cc1cccc(C(F)(F)F)c1)NCCOC(=O)c1ccccc1 (configuration not stated),activation,[1],inconclusive: -17.6% [at 35.3 µM]
same,Potency,[2],"inconclusive: 13.4 µM [cytotoxic, partial curve]"
same,Potency,[4],inactive
NNc1ccc(C(=O)O)cc1,Potency,[1],active: 49.5 µM
same,Potency,[2],inactive
same,Potency,[5],active: 43.9 nM and active: 24.6 µM
OCc1c[nH]c2ccccc12,Potency,[1],inconclusive: 6.92 µM [inhibitor]
same,Potency,[2],"inconclusive: 11 µM [rising, partial curve, poor fit]"
same,Potency,[4],"inconclusive: 0.864 µM [inhibitor, partial curve, poor fit]"
same,Potency,[5],inactive
same,Potency,[7],inconclusive: 63.5 µM [inhibitor]
CCN(Cc1cccnc1)C(=O)c1cccc(Cl)c1[C@]1(C)C(=O)N(Cc2ccc(OC)cc2OC)c2ccc(Cl)cc21,Potency,[1],"inconclusive: 6.46 µM [fluorescent, partial curve, poor fit]"
same,Potency,[2],"inconclusive: 1.82 µM [cytotoxic, full curve]"
same,Potency,[4],"inconclusive: 45.4 µM [inhibitor, partial curve]"
same,activation,[5],inconclusive: -9.43% [phenotype inactive]
CC(=O)c1ccccn1,Potency,[1],"inconclusive: 17.6 µM [activator, full curve, poor fit] and inactive"
same,Potency,[2],inactive
same,Potency,[5],"inconclusive: 22 µM [activator, partial curve, poor fit]"
